Assay results: PubChem BioAssay AID540256 (National Center for Advancing Translational Sciences (NCATS), 2011)
Values joined by “and” are separate entries in the source; they are usually repeats but may differ in a detail not shown here. Equal values may be shown once. About 3,700 (1.2%) of roughly 300,000 compounds were called active. Inconclusive results, whose numbers are uncertain, are shown with a selection of clear calls. Calls come from the whole dose curve; tested in HEK293 cells. A potency beside an inconclusive call is a rough fit, not a confirmed value. Some compounds were tested as several samples or in several runs, with calls that do not always agree.

Experiment: qHTS for Inhibitors of binding or entry into cells for Lassa Virus; note: nearly all actives have a fitted effect of over 50% in size
Details: Lassa virus pseudotype entry inhibition, cell reporter; activity change, negative = inhibition: at 37.9 µM (top of the series) unless noted
% is set by controls: 0 for no effect and ±100 for the full control effect; potency is the fitted concentration of half-maximal effect.

| SMILES | Potency | activity change, negative = inhibition |
| --- | --- | --- |
| COc1ccc2[nH]c(=O)c(CN(CC3CCCO3)S(=O)(=O)c3ccccc3F)cc2c1 (stereo unspecified) | inconclusive: 10 µM [inhibitor, partial curve, poor fit] |  |
| CCN1CCC(N(Cc2ccc3c(c2)OCO3)C(=O)Nc2cc(F)ccc2F)CC1 |  | inactive: -17.9% [at 46.1 µM] |
| CCOC(=O)Cc1nn(Cc2nc(-c3ccc(C#N)cc3)cs2)c(=O)c2ccccc12 | inconclusive: 35.5 µM [inhibitor, single point] |  |
| CCN(CC)C(=O)c1c(NC(=O)c2cccc(C)c2)sc2c1CCC(C)C2 (stereo unspecified) | inconclusive: 5.01 µM [inhibitor, full curve, poor fit] |  |
| O=[N+]([O-])c1ccc2nc(-c3ccc(Cl)cc3)n(OCc3ccccc3)c2c1 |  | inactive: 13.8% |
| CCOC(=O)C1(CCc2ccccc2)CCN(C(=O)C2CCOCC2)CC1 |  | inactive: -20.3% |
| COc1cccc(-n2c(N)c(C(=O)Nc3c(C)n(C)n(-c4ccccc4)c3=O)c3nc4ccccc4nc32)c1 | inconclusive: 7.08 µM [inhibitor, partial curve, poor fit] |  |
| CCCC(C(=O)NC1CCCCC1)N(Cc1ccco1)C(=O)CNS(=O)(=O)c1ccccc1 (stereo unspecified) | inconclusive: 11.2 µM [inhibitor, partial curve, poor fit] |  |
| COc1ccc(CN(C)CC(=O)Nc2ccccc2C(F)(F)F)cc1 | inconclusive: 32.6 µM [inhibitor, partial curve, poor fit] |  |
| Cc1ccc(NNC(=O)c2ccno2)cc1C | inconclusive: 35.5 µM [inhibitor, single point] |  |
| O=C(Nc1ccncc1)c1cccc2ccccc12 | inconclusive: 14.1 µM [inhibitor, single point] |  |
| COc1cc2[nH]c(=O)n(CCCC(=O)NCCc3ccccc3)c(=O)c2cc1OC | active: 1.41 µM |  |
| N#C/C(=C\C=C\c1ccccc1)C(=O)NCc1ccco1 |  | inactive: -29.6% |
| C=CCN1C(=O)/C(=C/c2ccc(O)cc2)S/C1=N/c1nccs1 | inconclusive: 17.8 µM [inhibitor, single point] |  |
| O=C(CC1CCCCC1)Nc1nc2ccccc2s1 | inconclusive: 35.5 µM [activator, single point] |  |
| Cc1cccc(NC(=O)CNC(=O)c2ccc3nc[nH]c3c2)c1C | inconclusive: 1.41 µM [activator, partial curve, poor fit] |  |
| CCN(CC)CCSc1c(C(C)C)cnc2c1c(=O)n(C)c(=O)n2C |  | inactive: 3.44% [at 46.1 µM] |
| C=CCNCCCCOc1ccc(OCC)cc1 | inconclusive: 22.4 µM [activator, single point] |  |
| Cc1ccc(C(=O)c2sc3c(c2N)c(=O)[nH]c(=O)n3CCc2ccccc2)cc1 | inconclusive: 0.731 µM [inhibitor, full curve] |  |
| CCc1cc(C(=O)N=Nc2c(O)[nH]c3ccc([N+](=O)[O-])cc23)c2ccccc2n1 | inconclusive: 20 µM [inhibitor, partial curve, poor fit] |  |
| COc1cc(NC(=O)N2CCc3c(sc4c3CCCC4)C2c2ccccc2)cc(OC)c1OC (stereo unspecified) | inconclusive: 11.2 µM [inhibitor, single point] |  |

| SMILES | Potency | activity change, negative = inhibition |
| --- | --- | --- |
| Cc1ccc(C(=O)Oc2csc(=S)n2C(=O)c2ccc(C)cc2)cc1 |  | inactive: -14.8% |
| CC(C)n1c(O)c(C2c3cc(Cl)ccc3Oc3[nH]c(=O)n(C(C)C)c(=O)c32)c(=O)[nH]c1=O (stereo unspecified) | inconclusive: 28.2 µM [inhibitor, partial curve, poor fit] |  |
| COc1ccc(NC(=O)c2ccco2)cc1NC(=O)COc1ccccc1[N+](=O)[O-] | inconclusive: 7.94 µM [inhibitor, partial curve] |  |
| Cc1ccc(O)c(C(CC(=O)N2CCCC2)c2ccccc2)c1 (stereo unspecified) |  | inactive: 3.26% |
| Cc1ccccc1OCCCn1cc(C(=O)C(=O)N2CCOCC2)c2ccccc21 | inconclusive: 35.5 µM [inhibitor, single point] |  |
| CCNC(=O)c1sc2cc(C)ccc2c1Cl |  | inactive: 17.5% |
| COc1ccc(C(=O)N2CCN(c3nc4cc(C)ccc4cc3C#N)CC2)c(OC)c1 | inconclusive: 17.8 µM [inhibitor, single point] |  |
| CCn1nc(NS(=O)(=O)c2ccccc2)c2cc3cccc(C)c3nc21 | inconclusive: 20.6 µM [activator, single point] |  |
| COC(=O)c1ccc(C(=O)OC)c(NC(=O)CN(c2ccccc2)S(=O)(=O)N(C)C)c1 | inactive and active: 10 µM |  |
| Cc1ccc(N2C(=O)CCSC23C(=O)N(Cc2ccccc2)c2ccccc23)cc1 (stereo unspecified) | inconclusive: 35.5 µM [inhibitor, single point] |  |
| CCOCCCn1c(=N)c(C(=O)NCc2cccnc2)cc2c(=O)n3ccccc3nc21 |  | inactive: 9.84% [at 46.1 µM] |
| CCOC(=O)c1[nH]c2cc(OC)c(OC)cc2c1NC(=O)C(C)N1CCN(Cc2ccccc2)CC1 (stereo unspecified) | inconclusive: 35.5 µM [inhibitor, single point] |  |
| Cc1ccc(C(=O)Nc2ccc3c(c2)nc2n3CCSC2)cc1 | inconclusive: 0.231 µM [activator, partial curve, poor fit] |  |
| CCN(C(=O)c1ccc2c(c1)OCO2)C1CCS(=O)(=O)C1 (stereo unspecified) | inconclusive: 0.282 µM [inhibitor, partial curve, poor fit] |  |
| COc1ccc(NS(=O)(=O)N2CCOCC2)cc1 | inconclusive: 5.01 µM [activator, full curve, poor fit] |  |
| Cc1cc(NC(=O)CSc2nc3ccsc3c(=O)n2CCCC(=O)NCCc2ccccc2)no1 | inconclusive: 10 µM [inhibitor, partial curve, poor fit] |  |
| CCn1c(CC(=O)Nc2ccc(Cl)cc2)nnc1SCC(=O)N1CCOCC1 | inconclusive: 0.891 µM [inhibitor, single point] |  |
| COc1ccc(C2=NN(C(=O)CSc3nc4ccccc4s3)C(c3ccc(F)cc3)C2)cc1 (stereo unspecified) | inconclusive: 25.1 µM [inhibitor, single point] |  |
| Cc1cc(-c2nn(-c3ccccc3F)cc2CN2CCN(c3ccncc3)CC2)c(C)s1 | inconclusive: 35.5 µM [inhibitor, single point] |  |
| O=C(NCC1CCCO1)c1cc(C(=O)C2CCCCC2)c[nH]1 (stereo unspecified) | inconclusive: 3.55 µM [inhibitor, partial curve, poor fit] |  |

A different layout for 2 compounds above:
SMILES,Potency,"activity change, negative = inhibition"
CCOCCCn1c(=N)c(C(=O)NCc2cccnc2)cc2c(=O)n3ccccc3nc21,,inactive: 9.84% [at 46.1 µM]
CCOC(=O)c1[nH]c2cc(OC)c(OC)cc2c1NC(=O)C(C)N1CCN(Cc2ccccc2)CC1 (stereo unspecified),"inconclusive: 35.5 µM [inhibitor, single point]",
